Results taken from patent US7388014B2, “Quinazoline derivatives and therapeutic use thereof” (Rexahn Pharmaceuticals, Inc., priority 2004, dated 2008).
Some results were stated once for a whole list of compounds, not compound by compound.

Tested on: 15 human tumor cell lines
Experiment: Cell growth inhibition assay (SRB), summary over the panel of cell lines
Type: cell-based
Conditions: nearly all cell lines tested
Source text: Cancer cells used in this study to determine the effect of quinazoline compounds were obtained from the following sources: Human OVCAR-3 (ovary), MCF-7 (breast, hormone-dependent), Hs 578T (breast), MDA-MB-231 (breast), HeLa (cervix), PC3 (prostate), HepG2 (liver), A549 (lung), Caki-1 (kidney), HT-29 (colon), HCT116 (colon) and PANC-1 (pancreas) from the American Type Culture Collection (ATCC) (Manassas, Va.); U251 (brain) from Riken (Japan); MKN-45 (stomach) from DSMZ (Germany); UMRC2 (kidney) and Lox IMVI (melanoma) from the United States National Cancer Institute (Bethesda, Md.). […]
The growth inhibition of the substituted quinazoline derivative compounds against a variety of human tumor cells was evaluated. […]
The growth inhibition assay of various compounds against 15 human tumor cell lines was performed using the Sulforhodamnine B (“SRB”) method (Skehan et al., J. National Cancer Institute, 82: 1107-1112 (1990)). […] After 5 minutes agitation in 10 mM Tris solution, the absorbance of each well was measured at 530 nm using Benchmark Plus Microplate reader (Bio-Rad Laboratories, Hercules, Calif.). […]
The IC50 values were calculated by non-linear regression analysis. […]

Work on `CC(C)Nc1ncnc2cc3[nH]cnc3cc12` [RX-1834] yielded an IC50 of less than 1000 nM.
